# Measurements: patent US10064926B2, “Peptides and combination of peptides for use in immunotherapy against hepatocellular carcinoma (HCC) and other cancers” (Immatics biotechnologies GmbH, priority 2014, dated 2018)
# System: primary HCC tissue samples
# Assay: Identification and label-free LC-MS relative quantitation of HLA-presented peptides (presentation profiles/scores), HCC versus normal tissues
# Parameters: species or system human; key to PeptidePresentation (presentation score): very highly over-presented on tumors compared to a panel of normal tissues (+++); highly over-presented on tumors compared to a panel of normal tissues (++); over-presented on tumors compared to a panel of normal tissues (+)
# Conditions: FIG. 1 presentation profiles
row,Substance,over-presentation in HCC compared with normal tissues
1,2 (KLQAGTVFV; listed as Homo sapiens) [compound 2],over-presentation

# Same assay, conditions: HCC tumors compared to a panel of normal tissues
row,Substance,PeptidePresentation (presentation score)
1,2 (KLQAGTVFV; listed as Homo sapiens) [compound 2],+++
2,11 (SLSQELVGV; listed as Homo sapiens) [compound 11],+
3,12 (FLAELAYDL; listed as Homo sapiens) [compound 12],+++
4,33 (LLHGHIVEL; listed as Homo sapiens) [compound 33],+
5,40 (ALLAEGITWV; listed as Homo sapiens) [compound 40],+
6,44 (ALQDAIRQL; listed as Homo sapiens) [compound 44],+

# System: tumor samples of other tumor types
# Assay: Over-presentation of peptides on additional tumor types versus normal tissues (LC-MS)
# Parameters: species or system human
# Conditions: over-presentation on more than 5% of the measured tumor samples, or presentation on more than 5% with ratio of geometric means tumor vs normal tissues larger than 3
Substance,Additional Entities (additional tumor types on which the peptide was found over-presented),Other relevant organs/diseases (additional tumor types on which the peptide was found over-presented)
35 (SLQESILAQV; listed as Homo sapiens) [compound 35],"NSCLC, SCLC, PrC, MCC, Melanoma, Urinary bladder cancer, AML",
36: peptide found in ACLY (gene looked up) (ILNVDGLIGV; listed as Homo sapiens) [compound 36],"NSCLC, SCLC, PrC, Melanoma, OC, Urinary bladder cancer, Uterine Cancer, Gallbladder Cancer, Bile Duct Cancer, NHL, PC","Kidney, Brain, Colon, Rectum"
37 (LLLPLLPPLSP; listed as Homo sapiens) [compound 37],"SCLC, PC, MCC, Uterine Cancer, Gallbladder Cancer, Bile Duct Cancer",
45 (ALQDQLVLV; listed as Homo sapiens) [compound 45],"SCLC, Brain Cancer",
64 (KILEETLYV; listed as Homo sapiens) [compound 64],"Esophageal Cancer, Urinary bladder cancer, Uterine Cancer",
65 (KLFSGDELLEV; listed as Homo sapiens) [compound 65],,"Brain, Colon, Rectum"
69 (KLLDEVTYLEA; listed as Homo sapiens) [compound 69],Urinary bladder cancer,"Colon, Rectum"
78 (LLIDDEYKV; listed as Homo sapiens) [compound 78],"Esophageal Cancer, Urinary bladder cancer, PC",
80 (LLYEGKLTL; listed as Homo sapiens) [compound 80],,"Colon, Rectum"
90 (RLLDVLAPLV; listed as Homo sapiens) [compound 90],BRCA,Kidney
95 (SICNGVPMV; listed as Homo sapiens) [compound 95],Urinary bladder cancer,
112 (VLGEVKVGV; listed as Homo sapiens) [compound 112],,Kidney
115 (VVLDDKDYFL; listed as Homo sapiens) [compound 115],CLL,
125 (ALYGRLEVV; listed as Homo sapiens) [compound 125],"BRCA, MCC, Melanoma, OC, Urinary bladder cancer, Uterine Cancer","Brain, Colon, Rectum"
136 (ALLNQHYQV; listed as Homo sapiens) [compound 136],"BRCA, OC",
138 (ALSQVTLLL; listed as Homo sapiens) [compound 138],,Kidney
145 (FLIAEYFEHV; listed as Homo sapiens) [compound 145],SCLC,
150 (GLSNLGIKSI; listed as Homo sapiens) [compound 150],"Urinary bladder cancer, NHL",
152 (KLDNNLDSV; listed as Homo sapiens) [compound 152],"BRCA, Melanoma",
157 (QLLPNLRAV; listed as Homo sapiens) [compound 157],RCC,
166 (SILDIVTKV; listed as Homo sapiens) [compound 166],"SCLC, CLL, MCC, Melanoma, Urinary bladder cancer, AML",Brain
178 (YIFTTPKSV; listed as Homo sapiens) [compound 178],AML,
199 (KFVTVQATF; listed as Homo sapiens) [compound 199],,Brain
207 (IYLERFPIF; listed as Homo sapiens) [compound 207],"NSCLC, GC",

Substance,Additional Entities (additional tumor types on which the peptide was found over-presented),Other relevant organs/diseases (additional tumor types on which the peptide was found over-presented)
209 (VFHPRQELI; listed as Homo sapiens) [compound 209],NSCLC,
216 (IYADVGEEF; listed as Homo sapiens) [compound 216],"NSCLC, GC, PrC",
222 (LTDITKGV; listed as Homo sapiens) [compound 222],"BRCA, NHL",
223 (FLFNTENKLLL; listed as Homo sapiens) [compound 223],"Melanoma, Urinary bladder cancer, NHL","Colon, Rectum"
232 (KLAEIVKQV; listed as Homo sapiens) [compound 232],"NSCLC, SCLC, BRCA, Melanoma, OC, Urinary bladder cancer","Colon, Rectum"
235 (KLFEEIREI; listed as Homo sapiens) [compound 235],"NSCLC, CRC, Melanoma, Urinary bladder cancer",
247 (KLLDTMVDTFL; listed as Homo sapiens) [compound 247],"NSCLC, SCLC, RCC, Brain Cancer, CLL, BRCA, OC, Esophageal Cancer, Urinary bladder cancer, Uterine Cancer, AML, NHL","Colon, Rectum"
262 (VLPNFLPYNV; listed as Homo sapiens) [compound 262],"NSCLC, SCLC, Brain Cancer, GC, BRCA, MCC, Melanoma, Esophageal Cancer, Urinary bladder cancer, Uterine Cancer, Gallbladder Cancer, Bile Duct Cancer, NHL, PC",
280 (ATLNIIHSV; listed as Homo sapiens) [compound 280],Urinary bladder cancer,
285 (KLLDLSDSTSV; listed as Homo sapiens) [compound 285],"SCLC, Uterine Cancer","Kidney, Colon, Rectum"
287 (LIGEFLEKV; listed as Homo sapiens) [compound 287],"SCLC, RCC, Melanoma, OC, Esophageal Cancer, Urinary bladder cancer, NHL",CLL
291 (QLIDYERQL; listed as Homo sapiens) [compound 291],,"Kidney, Colon, Rectum, Pancreas"
294 (RLIDLHTNV; listed as Homo sapiens) [compound 294],Esophageal Cancer,
296 (SLLSGRISTL; listed as Homo sapiens) [compound 296],"BRCA, Urinary bladder cancer",Kidney
300 (TLAQQPTAV; listed as Homo sapiens) [compound 300],"Urinary bladder cancer, Uterine Cancer, Gallbladder Cancer, Bile Duct Cancer, NHL",Pancreas
306 (KLVEFDFLGA; listed as Homo sapiens) [compound 306],,"Brain, Colon, Rectum"
321 (GVIAEILRGV; listed as Homo sapiens) [compound 321],,"Kidney, Brain"
325 (RLSEAIVTV; listed as Homo sapiens) [compound 325],,"Brain, Pancreas"
331 (SLLAQNTSWLL; listed as Homo sapiens) [compound 331],"NSCLC, RCC, GC, BRCA, Melanoma, Esophageal Cancer, Urinary bladder cancer","Brain, Colon, Rectum, Pancreas"
333 (GLAEDIDKGEV; listed as Homo sapiens) [compound 333],,"Kidney, Brain"
339 (RLISKFDTV; listed as Homo sapiens) [compound 339],,Brain
341 (YLAIGIHEL; listed as Homo sapiens) [compound 341],SCLC,
344 (VYISSLALL; listed as Homo sapiens) [compound 344],"NSCLC, GC, CRC",Brain
